The assay has as its target T1, GFP-tagged NHP2 (Arabidopsis) (UniProt Q9LEY9).
T1 sequence: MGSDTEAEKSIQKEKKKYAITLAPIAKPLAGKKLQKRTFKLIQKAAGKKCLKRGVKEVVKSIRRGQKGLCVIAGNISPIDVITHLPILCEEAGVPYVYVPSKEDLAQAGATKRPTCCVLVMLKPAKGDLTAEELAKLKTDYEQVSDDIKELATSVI
The assay is described as follows: affinity purification with mass spectrometry; IP of GFP-tagged NHP2 from 0.6 g plant tissue with anti-GFP magnetic microbeads (lysis buffer 50 mM Tris-HCl pH 8.0, 50 mM NaCl, 1% Triton X-100); control IP from Col-0 plants; 3 replicates; LC-MS/MS.

These are yes or no findings as the source states them, for the method shown. In cells and extracts the contact can be indirect. A yes stands for co-enrichment or nearness to the bait. Other partners may have been found. Where a sequence is shown, tags or fusion partners need not be part of it.

B1: AGO1 (protein, UniProt O04379 1-1048)
chain: MVRKRRTDAPSEGGEGSGSREAGPVSGGGRGSQRGGFQQGGGQHQGGRGYTPQPQQGGRGGRGYGQPPQQQQQYGGPQEYQGRGRGGPPHQGGRGGYGGGRGGGPSSGPPQRQSVPELHQATSPTYQAVSSQPTLSEVSPTQVPEPTVLAQQFEQLSVEQGAPSQAIQPIPSSSKAFKFPMRPGKGQSGKRCIVKANHFFAELPDKDLHHYDVTITPEVTSRGVNRAVMKQLVDNYRDSHLGSRLPAYDGRKSLYTAGPLPFNSKEFRINLLDEEVGAGGQRREREFKVVIKLVARADLHHLGMFLEGKQSDAPQEALQVLDIVLRELPTSRYIPVGRSFYSPDIGKKQSLGDGLESWRGFYQSIRPTQMGLSLNIDMSSTAFIEANPVIQFVCDLLNRDISSRPLSDADRVKIKKALRGVKVEVTHRGNMRRKYRISGLTAVATRELTFPVDERNTQKSVVEYFHETYGFRIQHTQLPCLQVGNSNRPNYLPMEVCKIVEGQRYSKRLNERQITALLKVTCQRPIDREKDILQTVQLNDYAKDNYAQEFGIKISTSLASVEARILPPPWLKYHESGREGTCLPQVGQWNMMNKKMINGGTVNNWICINFSRQVQDNLARTFCQELAQMCYVSGMAFNPEPVLPPVSARPEQVEKVLKTRYHDATSKLSQGKEIDLLIVILPDNNGSLYGDLKRICETELGIVSQCCLTKHVFKMSKQYMANVALKINVKVGGRNTVLVDALSRRIPLVSDRPTIIFGADVTHPHPGEDSSPSIAAVVASQDWPEITKYAGLVCAQAHRQELIQDLFKEWKDPQKGVVTGGMIKELLIAFRRSTGHKPLRIIFYRDGVSEGQFYQVLLYELDAIRKACASLEAGYQPPVTFVVVQKRHHTRLFAQNHNDRHSVDRSGNILPGTVVDSKICHPTEFDFYLCSHAGIQGTSRPAHYHVLWDENNFTADGLQSLTNNLCYTYARCTRSVSIVPPAYYAHLAAFRARFYMEPETSDSGSMASGSMARGGGMAGRSTRGPNVNAAVRPLPALKENVKRVMFYC
In the case of B1, the binding entry was “binds”.

B2: AGO2 (protein, UniProt Q9SHF3 1-1014)
chain: MERGGYRGGRGDGRGRGGRGYGGGGGGGEQGRDRGYGGGEQGRGRGSERGGGNRGQGRGEQQDFRSQSQRGPPPGHGGRGTTQFQQPRPQVAPQPSQAPASYAGSVGGVAGRGAWGRKPQVPSDSASPSTSTTVVSEPVRVAEVMNLKPSVQVATSDRKEPMKRPDRGGVVAVRRVNLYVNHYKVNFNPESVIRHYDVEIKGEIPTKKVSRFELAMVRDKVFTDNPDEFPLAMTAYDGQKNIFSAVELPTGSYKVEYPKTEEMRGRSYTFTIKQVNVLKLGDLKEYMTGRSSFNPRDVLQGMDVVMKEHPSKCMITVGKSFFTRETEPDEDFRFGVIAAKGYRHTLKPTAQGLSLCLDYSVLAFRKAMSVIEYLKLYFNWSDMRQFRRRDVEEELIGLKVTVNHRKNKQKLTIVGLSMQNTKDIKFDLIDQEGNEPPRKTSIVEYFRIKYGRHIVHKDIPCLDLGKNGRQNFVPMEFCDLVEGQIYPKDNLDKDSALWLKKLSLVNPQQRQRNIDKMIKARNGPSGGEIIGNFGLKVDTNMTPVEGRVLKAPSLKLAERGRVVREEPNPRQNNQWNLMKKGVTRGSIVKHWAVLDFTASERFNKMPNDFVDNLIDRCWRLGMQMEAPIVYKTSRMETLSNGNAIEELLRSVIDEASRKHGGARPTLVLCAMSRKDDGYKTLKWIAETKLGLVTQCFLTGPATKGGDQYRANLALKMNAKVGGSNVELMDTFSFFKKEDEVMFIGADVNHPAARDKMSPSIVAVVGTLNWPEANRYAARVIAQPHRKEEIQGFGDACLELVKAHVQATGKRPNKIVIFRDGVSDAQFDMVLNVELLDVKLTFEKNGYNPKITVIVAQKRHQTRFFPATNNDGSDKGNVPSGTVVDTKVIHPYEYDFYLCSHHGGIGTSKPTHYYTLWDELGFTSDQVQKLIFEMCFTFTRCTKPVSLVPPVYYADMVAFRGRMYHEASSREKNFKQPRGASTSAASLASSLSSLTIEDKAIFKLHAELENVMFFV
For B2, the binding result is reported as “binds”.

B3: AGO5 (protein, UniProt Q9SJK3 1-997)
chain: MSNRGGGGHGGASRGRGGGRRSDQRQDQSSGQVAWPGLQQSYGGRGGSVSAGRGRGNVGRGENTGDLTATQVPVASAVSGGRGRGNIGDPTFSVASSSKTVSVASSSKEESKNTEVSETMSNLQITSTETKPEMTSLPPASSKAVTFPVRPGRGTLGKKVMVRANHFLVQVADRDLYHYDVSINPEVISKTVNRNVMKLLVKNYKDSHLGGKSPAYDGRKSLYTAGPLPFDSKEFVVNLAEKRADGSSGKDRPFKVAVKNVTSTDLYQLQQFLDRKQREAPYDTIQVLDVVLRDKPSNDYVSVGRSFFHTSLGKDARDGRGELGDGIEYWRGYFQSLRLTQMGLSLNIDVSARSFYEPIVVTDFISKFLNIRDLNRPLRDSDRLKVKKVLRTLKVKLLHWNGTKSAKISGISSLPIRELRFTLEDKSEKTVVQYFAEKYNYRVKYQALPAIQTGSDTRPVYLPMELCQIDEGQRYTKRLNEKQVTALLKATCQRPPDRENSIKNLVVKNNYNDDLSKEFGMSVTTQLASIEARVLPPPMLKYHDSGKEKMVNPRLGQWNMIDKKMVNGAKVTSWTCVSFSTRIDRGLPQEFCKQLIGMCVSKGMEFKPQPAIPFISCPPEHIEEALLDIHKRAPGLQLLIVILPDVTGSYGKIKRICETELGIVSQCCQPRQVNKLNKQYMENVALKINVKTGGRNTVLNDAIRRNIPLITDRPTIIMGADVTHPQPGEDSSPSIAAVVASMDWPEINKYRGLVSAQAHREEIIQDLYKLVQDPQRGLVHSGLIREHFIAFRRATGQIPQRIIFYRDGVSEGQFSQVLLHEMTAIRKACNSLQENYVPRVTFVIVQKRHHTRLFPEQHGNRDMTDKSGNIQPGTVVDTKICHPNEFDFYLNSHAGIQGTSRPAHYHVLLDENGFTADQLQMLTNNLCYTYARCTKSVSIVPPAYYAHLAAFRARYYMESEMSDGGSSRSRSSTTGVGQVISQLPAIKDNVKEVMFYC
With B3, the binding entry is “binds”.

B4: AGO10 (protein, UniProt Q9XGW1 1-988)
chain: MPIRQMKDSSETHLVIKTQPLKHHNPKTVQNGKIPPPSPSPVTVTTPATVTQSQASSPSPPSKNRSRRRNRGGRKSDQGDVCMRPSSRPRKPPPPSQTTSSAVSVATAGEIVAVNHQMQMGVRKNSNFAPRPGFGTLGTKCIVKANHFLADLPTKDLNQYDVTITPEVSSKSVNRAIIAELVRLYKESDLGRRLPAYDGRKSLYTAGELPFTWKEFSVKIVDEDDGIINGPKRERSYKVAIKFVARANMHHLGEFLAGKRADCPQEAVQILDIVLRELSVKRFCPVGRSFFSPDIKTPQRLGEGLESWCGFYQSIRPTQMGLSLNIDMASAAFIEPLPVIEFVAQLLGKDVLSKPLSDSDRVKIKKGLRGVKVEVTHRANVRRKYRVAGLTTQPTRELMFPVDENCTMKSVIEYFQEMYGFTIQHTHLPCLQVGNQKKASYLPMEACKIVEGQRYTKRLNEKQITALLKVTCQRPRDRENDILRTVQHNAYDQDPYAKEFGMNISEKLASVEARILPAPWLKYHENGKEKDCLPQVGQWNMMNKKMINGMTVSRWACVNFSRSVQENVARGFCNELGQMCEVSGMEFNPEPVIPIYSARPDQVEKALKHVYHTSMNKTKGKELELLLAILPDNNGSLYGDLKRICETELGLISQCCLTKHVFKISKQYLANVSLKINVKMGGRNTVLVDAISCRIPLVSDIPTIIFGADVTHPENGEESSPSIAAVVASQDWPEVTKYAGLVCAQAHRQELIQDLYKTWQDPVRGTVSGGMIRDLLISFRKATGQKPLRIIFYRDGVSEGQFYQVLLYELDAIRKACASLEPNYQPPVTFIVVQKRHHTRLFANNHRDKNSTDRSGNILPGTVVDTKICHPTEFDFYLCSHAGIQGTSRPAHYHVLWDENNFTADGIQSLTNNLCYTYARCTRSVSIVPPAYYAHLAAFRARFYLEPEIMQDNGSPGKKNTKTTTVGDVGVKPLPALKENVKRVMFYC
On to B4, for which the binding result is given as “binds”.

The values are drawn from paper PMC11832342.
